Some entries share one result that the patent states for a list of compounds. For at least one compound, name, drawing or mass did not settle the structure.
Key:
Type in all cases: in vivo
Myzus persicae = experiment: Test of control effect on Myzus persicae (foliar application, potted Chinese cabbage); details: 500 ppm, foliar application to potted Chinese cabbage plants, 6 days after the foliar application
Text: Test of Control Effect on Myzus persicae Chinese cabbage plants were planted in plastic pots (diameter: 8 cm, height: 8 cm), green peach aphids (Myzus persicae) were propagated on the plants, and the number of surviving green peach aphids in each pot was counted. The condensed heterocyclic compounds represented by the general formula (1) of the present invention or salts thereof were separately dispersed in water and diluted to 500 ppm, and the agrochemical dispersions were applied to the foliage of the potted Chinese cabbage plants. After the plants were air-dried, the pots were kept in a greenhouse. At 6 days after the foliar application, the number of surviving green peach aphids on the Chinese cabbage plant in each pot was counted, the control rate was calculated according to the formula shown below, and the control effect was evaluated according to the criterion shown below. Control rate=100−{(T×Ca)/(Ta×C)}×100 Ta: the number of survivors before the foliar application in a treatment plot T: the number of survivors after the foliar application in a treatment plot Ca: the number of survivors before the foliar application in a non-treatment plot C: the number of survivors after the foliar application in a non-treatment plot Criterion A: the control rate is 100%. B: the control rate is 90 to 99%. C: the control rate is 80 to 89%. D: the control rate is 50 to 79%.

Plutella xylostella = experiment: Test of insecticidal effect on Plutella xylostella (dip of Chinese cabbage seedlings with laid eggs); details: 500 ppm, seedlings with laid eggs dipped for about 30 seconds, 25° C., 6 days after the dip treatment
Text: Test of Insecticidal Effect on Plutella xylostella
Adults of Plutella xylostella were released onto Chinese cabbage seedlings and allowed to lay eggs thereon. At 2 days after the release of the adults, the Chinese cabbage seedlings with laid eggs were dipped for about 30 seconds in agrochemical dispersions diluted to 500 ppm, each of which contained a different condensed heterocyclic compound represented by the general formula (1) of the present invention as an active ingredient. The seedlings were air-dried and then kept in a thermostatic chamber at 25° C. At 6 days after the dip treatment, the number of hatched larvae per plot was counted, the mortality rate was calculated according to the formula shown below, and the insecticidal effect was evaluated according to the criterion of Test Example 1. This test was conducted in triplicate using 10 adults of Plutella xylostella per plot. Corrected mortality rate (%)=100×(Number of hatched larvae in a non-treatment plot−Number of hatched larvae in a treatment plot)/Number of hatched larvae in a non-treatment plot

Laodelphax striatella = experiment: Test of insecticidal effect on Laodelphax striatella (rice seedling dip); details: 500 ppm, rice seedlings dipped for 30 seconds, 3rd-instar larvae, 8 days after the inoculation
Text: Test of Insecticidal Effect on Laodelphax striatella
The condensed heterocyclic compounds represented by the general formula (1) of the present invention or salts thereof were separately dispersed in water and diluted to 500 ppm, and rice plant seedlings (variety: Nihonbare) were dipped in the agrochemical dispersions for 30 seconds. After air-dried, each seedling was put into a separate glass test tube and inoculated with ten 3rd-instar larvae of Laodelphax striatella, and then the glass test tubes were capped with cotton plugs. At 8 days after the inoculation, the numbers of surviving larvae and dead larvae were counted, the corrected mortality rate was calculated according to the formula shown below, and the insecticidal effect was evaluated according to the criterion of Test Example 1. Corrected mortality rate (%)=100×(Survival rate in a non-treatment plot−Survival rate in a treatment plot)/Survival rate in a non-treatment plot

CCS(=O)(=O)c1cc(C2(CO)CC2)cnc1-c1nc2cc(SC(F)(F)F)ccc2o1 [Compound 18-176]
A (the control rate is 100%): control effect (control rate), activity level (Myzus persicae) | insecticidal effect (corrected mortality rate), activity level (Plutella xylostella) | insecticidal effect (corrected mortality rate), activity level (Laodelphax striatella)

CCS(=O)(=O)c1cc(C2(NC(C)=O)CC2)cnc1-c1nc2cc(SC(F)(F)F)ccc2o1 [Compound 18-228]
A (the control rate is 100%): control effect (control rate), activity level (Myzus persicae) | insecticidal effect (corrected mortality rate), activity level (Plutella xylostella) | insecticidal effect (corrected mortality rate), activity level (Laodelphax striatella)

CCS(=O)(=O)c1cc(C2(C(=O)OC)CC2)cnc1-c1nc2cc(C(F)(F)F)ncc2n1C [Compound 12-2]
A (the control rate is 100%): control effect (control rate), activity level (Myzus persicae) | insecticidal effect (corrected mortality rate), activity level (Plutella xylostella) | insecticidal effect (corrected mortality rate), activity level (Laodelphax striatella)

CCS(=O)(=O)c1cc(C2(C(=O)O)CC2)cnc1-c1nc2cc(C(F)(F)F)ccc2o1 [Compound 18-1]
A (the control rate is 100%): control effect (control rate), activity level (Myzus persicae) | insecticidal effect (corrected mortality rate), activity level (Plutella xylostella) | insecticidal effect (corrected mortality rate), activity level (Laodelphax striatella)

CCSc1cc(C2CC2)cnc1-c1nc2cc(C(F)(F)C(F)(F)F)cnc2n1C [Compound 1-16]
A (the control rate is 100%): control effect (control rate), activity level (Myzus persicae) | insecticidal effect (corrected mortality rate), activity level (Plutella xylostella) | insecticidal effect (corrected mortality rate), activity level (Laodelphax striatella)

CCS(=O)(=O)c1cc(C2(C=NOC)CC2)cnc1-c1nc2cc(SC(F)(F)F)ccc2o1 [Compound 18-211]
A (the control rate is 100%): control effect (control rate), activity level (Myzus persicae) | insecticidal effect (corrected mortality rate), activity level (Plutella xylostella) | insecticidal effect (corrected mortality rate), activity level (Laodelphax striatella)

CCS(=O)(=O)c1cc(C2CC2C=NOC)cnc1-c1nc2cc(C(F)(F)F)cnc2n1C (stereo not drawn) [Compound 11-131]
A (the control rate is 100%): control effect (control rate), activity level (Myzus persicae) | insecticidal effect (corrected mortality rate), activity level (Plutella xylostella) | insecticidal effect (corrected mortality rate), activity level (Laodelphax striatella)

CCS(=O)(=O)c1cc(C2CC2NC)cnc1-c1nc2cc(C(F)(F)F)cnc2n1C (stereo not drawn) [Compound 11-141]
A (the control rate is 100%): control effect (control rate), activity level (Myzus persicae) | insecticidal effect (corrected mortality rate), activity level (Plutella xylostella) | insecticidal effect (corrected mortality rate), activity level (Laodelphax striatella)

CCS(=O)(=O)c1cc(C2(C=NO)CC2)cnc1-c1nc2cc(SC(F)(F)F)ccc2o1 [Compound 18-210]
A (the control rate is 100%): control effect (control rate), activity level (Myzus persicae) | insecticidal effect (corrected mortality rate), activity level (Plutella xylostella) | insecticidal effect (corrected mortality rate), activity level (Laodelphax striatella)

CCS(=O)(=O)c1cc(C2CC2C(=O)O)cnc1-c1nc2cc(C(F)(F)F)cnc2n1C (stereo not drawn) [Compound 11-81]
A (the control rate is 100%): control effect (control rate), activity level (Myzus persicae) | insecticidal effect (corrected mortality rate), activity level (Plutella xylostella) | insecticidal effect (corrected mortality rate), activity level (Laodelphax striatella)

CCS(=O)(=O)c1cc(C2CC2CO)cnc1-c1nc2cc(C(F)(F)F)cnc2n1C (stereo not drawn) [Compound 11-96]
A (the control rate is 100%): control effect (control rate), activity level (Myzus persicae) | insecticidal effect (corrected mortality rate), activity level (Plutella xylostella) | insecticidal effect (corrected mortality rate), activity level (Laodelphax striatella)

CCSc1cc(C2CC2C(=O)O)cnc1-c1nc2cc(C(F)(F)F)cnc2n1C (stereo not drawn) [Compound 20-21]
A (the control rate is 100%): control effect (control rate), activity level (Myzus persicae) | insecticidal effect (corrected mortality rate), activity level (Plutella xylostella) | insecticidal effect (corrected mortality rate), activity level (Laodelphax striatella)

CCS(=O)(=O)c1cc(C2CC2C=O)cnc1-c1nc2cc(C(F)(F)F)cnc2n1C (stereo not drawn) [Compound 11-94]
A (the control rate is 100%): control effect (control rate), activity level (Myzus persicae) | insecticidal effect (corrected mortality rate), activity level (Plutella xylostella) | insecticidal effect (corrected mortality rate), activity level (Laodelphax striatella)

CCS(=O)(=O)c1cc(C2CC2)cnc1-c1nc2cc(SC(F)(F)F)ccc2o1 [Compound 8-12]
A (the control rate is 100%): control effect (control rate), activity level (Myzus persicae) | insecticidal effect (corrected mortality rate), activity level (Plutella xylostella) | insecticidal effect (corrected mortality rate), activity level (Laodelphax striatella)

CCS(=O)(=O)c1cc(C2CC2NC(C)=O)cnc1-c1nc2cc(C(F)(F)F)cnc2n1C (stereo not drawn) [Compound 11-148]
A (the control rate is 100%): control effect (control rate), activity level (Myzus persicae) | insecticidal effect (corrected mortality rate), activity level (Plutella xylostella) | insecticidal effect (corrected mortality rate), activity level (Laodelphax striatella)

CCS(=O)(=O)c1cc(C2(C=O)CC2)cnc1-c1nc2cc(C(F)(F)F)cnc2n1C [Compound 11-14]
A (the control rate is 100%): control effect (control rate), activity level (Myzus persicae) | insecticidal effect (corrected mortality rate), activity level (Plutella xylostella) | insecticidal effect (corrected mortality rate), activity level (Laodelphax striatella)

CCS(=O)(=O)c1cc(C2(C#N)CC2)cnc1-c1nc2cc(C(F)(F)F)ccc2o1 [Compound 18-13]
A (the control rate is 100%): control effect (control rate), activity level (Myzus persicae) | insecticidal effect (corrected mortality rate), activity level (Plutella xylostella) | insecticidal effect (corrected mortality rate), activity level (Laodelphax striatella)

CCS(=O)(=O)c1cc(C2(C#N)CC2)cnc1-c1nc2cc(C(F)(F)F)ncc2n1C [Compound 12-13]
A (the control rate is 100%): control effect (control rate), activity level (Myzus persicae) | insecticidal effect (corrected mortality rate), activity level (Plutella xylostella) | insecticidal effect (corrected mortality rate), activity level (Laodelphax striatella)

CCS(=O)(=O)c1cc(C2(CC#N)CC2)cnc1-c1nc2cc(C(F)(F)F)cnc2n1C [Compound 11-27]
A (the control rate is 100%): control effect (control rate), activity level (Myzus persicae) | insecticidal effect (corrected mortality rate), activity level (Plutella xylostella) | insecticidal effect (corrected mortality rate), activity level (Laodelphax striatella)

CCS(=O)(=O)c1cc(C2(CCl)CC2)cnc1-c1nc2cc(C(F)(F)F)cnc2n1C [Compound 11-80]
A (the control rate is 100%): control effect (control rate), activity level (Myzus persicae) | insecticidal effect (corrected mortality rate), activity level (Plutella xylostella) | insecticidal effect (corrected mortality rate), activity level (Laodelphax striatella)

CCS(=O)(=O)c1cc(C2CC2N)cnc1-c1nc2cc(C(F)(F)F)cnc2n1C (stereo not drawn) [Compound 11-140]
A (the control rate is 100%): control effect (control rate), activity level (Myzus persicae) | insecticidal effect (corrected mortality rate), activity level (Plutella xylostella) | insecticidal effect (corrected mortality rate), activity level (Laodelphax striatella)

CCSc1cc(C2CC2C#N)cnc1-c1nc2cc(C(F)(F)F)cnc2n1C (stereo not drawn) [Compound 20-24]
A (the control rate is 100%): control effect (control rate), activity level (Myzus persicae) | insecticidal effect (corrected mortality rate), activity level (Plutella xylostella) | insecticidal effect (corrected mortality rate), activity level (Laodelphax striatella)

CCSc1cc(C2(C(=O)OC)CC2)cnc1-c1nc2cc(C(F)(F)F)cnc2n1C [Compound 20-2]
A (the control rate is 100%): control effect (control rate), activity level (Myzus persicae) | insecticidal effect (corrected mortality rate), activity level (Plutella xylostella) | insecticidal effect (corrected mortality rate), activity level (Laodelphax striatella)

CCS(=O)(=O)c1cc(C2(NC(=O)OC)CC2)cnc1-c1nc2cc(C(F)(F)F)cnc2n1C [Compound 11-73]
A (the control rate is 100%): control effect (control rate), activity level (Myzus persicae) | insecticidal effect (corrected mortality rate), activity level (Plutella xylostella) | insecticidal effect (corrected mortality rate), activity level (Laodelphax striatella)

CCSc1cc(C2CC2C(=O)OC)cnc1-c1nc2cc(C(F)(F)F)cnc2n1C (stereo not drawn) [Compound 20-22]
A (the control rate is 100%): control effect (control rate), activity level (Myzus persicae) | insecticidal effect (corrected mortality rate), activity level (Plutella xylostella) | insecticidal effect (corrected mortality rate), activity level (Laodelphax striatella)
